The record followed here is paper PMC10933653.

Amino acid sequences for entries named in this document (tags omitted). A change or cut given only in a name is not applied to a line headed by its entry.
UniProt O00625: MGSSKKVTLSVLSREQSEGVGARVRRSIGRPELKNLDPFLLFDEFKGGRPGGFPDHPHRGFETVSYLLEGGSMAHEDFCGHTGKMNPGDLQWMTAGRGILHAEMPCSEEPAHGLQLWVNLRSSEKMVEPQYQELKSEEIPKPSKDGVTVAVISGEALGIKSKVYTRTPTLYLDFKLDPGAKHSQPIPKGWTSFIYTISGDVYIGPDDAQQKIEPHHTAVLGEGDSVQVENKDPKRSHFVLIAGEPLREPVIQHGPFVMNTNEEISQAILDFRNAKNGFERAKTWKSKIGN

Construct, isoform or probe ends are uncertain for at least one entry. For part of these data: A negative result means that nothing was seen under these conditions. For part of these data: Tags and fusion partners may be left off the protein sequences shown. For part of these data: A weaker result is weaker than the reference pair of the same experiment. For part of these data: At least one verdict rests on a figure or table, not on a statement of the authors.

Common to all, as to experiment: EMSA
On the technique in general: In EMSA bound probe runs differently from free probe, usually more slowly.

Series [1] concerns the target GST-PIR (pirin) (Homo sapiens) (UniProt O00625). Conditions: 20 nM probe, increasing GST-PIR; EMSA on non-denaturing polyacrylamide gel, 20 nM 3' FAM probe, E. coli purified proteins; pH and temperature not stated (cited method); recombinant protein; residues 1-290; protein details: GST; label: 3' FAM.
Series [2] concerns the target T1, GST-p50 (activated form of NFkB1) (UniProt P19838).
T1 sequence (looked up, limits assumed): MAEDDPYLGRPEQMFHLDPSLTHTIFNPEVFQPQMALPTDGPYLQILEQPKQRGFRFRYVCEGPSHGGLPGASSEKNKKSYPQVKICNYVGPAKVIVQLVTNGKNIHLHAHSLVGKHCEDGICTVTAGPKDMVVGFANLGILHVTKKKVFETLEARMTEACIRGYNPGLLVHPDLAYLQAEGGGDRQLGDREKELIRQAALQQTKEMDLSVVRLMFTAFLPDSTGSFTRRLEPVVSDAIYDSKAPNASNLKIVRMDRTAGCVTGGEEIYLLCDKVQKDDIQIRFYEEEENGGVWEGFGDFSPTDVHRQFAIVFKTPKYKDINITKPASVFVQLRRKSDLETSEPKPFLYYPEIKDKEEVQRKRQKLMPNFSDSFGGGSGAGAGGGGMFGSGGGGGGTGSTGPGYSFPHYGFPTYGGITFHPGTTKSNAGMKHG
The note with it: 20 nM probe, 20 nM protein; EMSA on non-denaturing polyacrylamide gel, 20 nM 3' FAM probe, E. coli purified proteins; pH and temperature not stated (cited method); recombinant protein; protein details: GST; label: 3' FAM.

Series [3] addresses T2, GST-p52 (activated form of NFkB2) (Homo sapiens) (UniProt Q00653).
T2 sequence (looked up, limits assumed): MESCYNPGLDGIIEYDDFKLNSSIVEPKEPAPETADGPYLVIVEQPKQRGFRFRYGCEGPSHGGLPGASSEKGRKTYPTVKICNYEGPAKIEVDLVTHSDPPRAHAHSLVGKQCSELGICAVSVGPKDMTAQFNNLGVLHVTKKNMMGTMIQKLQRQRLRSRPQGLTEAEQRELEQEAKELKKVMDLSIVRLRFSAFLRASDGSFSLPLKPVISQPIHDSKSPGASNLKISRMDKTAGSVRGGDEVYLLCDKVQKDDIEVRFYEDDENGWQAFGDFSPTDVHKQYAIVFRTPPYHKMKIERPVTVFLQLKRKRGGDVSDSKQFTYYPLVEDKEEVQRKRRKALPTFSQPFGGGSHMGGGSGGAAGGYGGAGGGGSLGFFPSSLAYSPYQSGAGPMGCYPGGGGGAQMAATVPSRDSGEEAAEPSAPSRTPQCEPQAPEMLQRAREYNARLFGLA
Conditions: EMSA on non-denaturing polyacrylamide gel, 20 nM 3' FAM probe, E. coli purified proteins, pH and temperature not stated (cited method), recombinant protein, protein details: GST, label: 3' FAM.

The subject of series [4] is GST-p52 (activated form of NFkB2) + RELB. The note with it: EMSA on non-denaturing polyacrylamide gel, 20 nM 3' FAM probe, E. coli purified proteins, pH and temperature not stated (cited method), recombinant protein, protein details: GST, label: 3' FAM.

For the sequence “AACGTCTGTGAGCCTCTCATGTTGCAGCCA (double strand) [FAS promoter 3'-2a probe]”, the binding result in series [1] is given as “no binding”; in series [2] it was “no binding”; in series [3] (20 nM probe, 20 nM protein) it was “binds”; in series [3] (increasing GST-PIR, binding not influenced) it was “binds”; in series [4] (20 nM probe, without PIR), “binds”; in series [4] (with PIR, PIR disrupts binding of p52-RELB), “binds more weakly”.
